Data source: PubChem BioAssay AID686937 (Drosophila RNAi Screening Center, 2013)

Test: 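Genes whose loss weakens secretory pathway function in fly cells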 (primary screen)
Cell system: Drosophila S2 cells expressing secreted horseradish peroxidase
Reagent: long dsRNA against Drosophila genes
Duration: about 5.5 days (5 days dsRNA, then 12 h reporter induction)
Treatment: reporter expression induced after 5 days of dsRNA, read 12 h later; inducer not stated
Measured: 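After 5 days of dsRNA and 12 h of reporter induction, medium peroxidase read by chemiluminescence and scored as per-plate z-score; higher values mean more reporter released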
Reading the numbers: z-score: higher = more reporter secreted into medium
In all, the deposit lists about 23,000 reagents; below is a random part of those with a known target gene and a result. 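Reduced-secretion tags in replicate 1 do not always agree with the z-scores; no criterion for assigning the tags was given.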 The numbers tell different reagents against one gene apart. A plus sign joins genes that one reagent is predicted to hit. Further read-outs or replicates are left out here. Not given: the amount of reagent.

With knock-down of dati #1 the results were z-score, replicate 1 = 0.15.
dati #2 showed z-score, replicate 1 = 0.45.
Against dati #3 the deposit lists z-score, replicate 1 = 0.22.
Depletion of CCHa1 resulted in: z-score, replicate 1 = -4.72.
With knock-down of CG31933 the results were z-score, replicate 1 = 0.23.
After knock-down of Rdh #1, the record shows z-score, replicate 1 = -4.81; phenotype, replicate 1 = reduced secretion.
Knock-down of Rdh #2 resulted in: z-score, replicate 1 = -0.09; phenotype, replicate 1 = reduced secretion.
With knock-down of CtsF #1, the screen gave z-score, replicate 1 = 0.49.
Against CtsF #2, the values are z-score, replicate 1 = 0.56.
CtsF #3 scored z-score, replicate 1 = 0.49.
Gpxl showed z-score, replicate 1 = 0.43.
With knock-down of CG12920 the results were z-score, replicate 1 = 0.16.
After knock-down of CG8586, the record shows z-score, replicate 1 = 0.3.
With knock-down of pyd #1, the record shows z-score, replicate 1 = 0.44.
Knock-down of pyd #2 resulted in: z-score, replicate 1 = 0.22.
Silencing of pyd #3 resulted in: z-score, replicate 1 = 0.24.
For pyd #4, the values are z-score, replicate 1 = 0.27.
For pyd #5, the values are z-score, replicate 1 = 0.25.
Depletion of pyd #6 came out at: z-score, replicate 1 = 0.35.
Against pyd #7, the values are z-score, replicate 1 = 0.43.
Against pyd #8 the deposit lists z-score, replicate 1 = 1.47.
CG42380 + CG42379 + PIG-M + 1 more #1 gave z-score, replicate 1 = -0.6.
Against CG42380 + CG42379 + PIG-M + 1 more #2 the deposit lists z-score, replicate 1 = 0.25.
For mthl15, the values are z-score, replicate 1 = -1.41.
For Mdh2 the deposit lists z-score, replicate 1 = 0.31.
CG18428 gave z-score, replicate 1 = 0.33.
With knock-down of CG1688 the results were z-score, replicate 1 = 0.25.
After knock-down of SmydA-3 #1, the record shows z-score, replicate 1 = -0.27.
For SmydA-3 #2, the entry reads z-score, replicate 1 = -0.51.
For CG4409, the values are z-score, replicate 1 = 0.18.
With knock-down of CG15239, the screen gave z-score, replicate 1 = 0.34.

A portion of the results above, for reference:
CG42380 + CG42379 + PIG-M + 1 more #2 — z-score, replicate 1 = 0.25
mthl15 — z-score, replicate 1 = -1.41
Mdh2 — z-score, replicate 1 = 0.31
CG18428 — z-score, replicate 1 = 0.33
CG1688 — z-score, replicate 1 = 0.25
SmydA-3 #1 — z-score, replicate 1 = -0.27
SmydA-3 #2 — z-score, replicate 1 = -0.51
CG4409 — z-score, replicate 1 = 0.18

Continued.
Silencing of CG1077 came out at: z-score, replicate 1 = 0.29.
For ppk29, the values are z-score, replicate 1 = 0.16.
CG3358 showed z-score, replicate 1 = 0.11.
For lectin-33A #1, the values are z-score, replicate 1 = 0.14.
With knock-down of lectin-33A #2 the results were z-score, replicate 1 = -1.26.
CG17618 (retired record) + CG45049 #1 showed z-score, replicate 1 = 0.21.
CG17618 (retired record) + CG45049 #2 gave z-score, replicate 1 = -1.35; phenotype, replicate 1 = reduced secretion.
CG10864 scored z-score, replicate 1 = 0.29.
Silencing of CG42369 came out at: z-score, replicate 1 = 0.72.
After knock-down of CG3081, the record shows z-score, replicate 1 = 0.41.
Depletion of Sod2 gave: z-score, replicate 1 = -0.07.
CR18166 #1 gave z-score, replicate 1 = 0.07.
Depletion of CR18166 #2 resulted in: z-score, replicate 1 = 0.43.
With knock-down of CG10845, the screen gave z-score, replicate 1 = 0.14.
For Cyp6t2Psi, the values are z-score, replicate 1 = 0.32.
Usf scored z-score, replicate 1 = 0.4.
For Msp300 #1, the entry reads z-score, replicate 1 = -0.58.
Msp300 #2 scored z-score, replicate 1 = 0.1.
Against Msp300 #3 the deposit lists z-score, replicate 1 = 0.35.
Msp300 #4 scored z-score, replicate 1 = -0.21.
Depletion of Msp300 #5 resulted in: z-score, replicate 1 = 0.45.
Msp300 #6 scored z-score, replicate 1 = 0.1.
Depletion of Msp300 #7 resulted in: z-score, replicate 1 = 0.13.
